Measured values published in US8911962B2, “Method for neutralization of antibiotics in a culture medium” (bioMerieux, Inc., priority 2009, dated 2014).
At least one structure is not confirmed: it was looked up by name or label, or the drawing left a doubt.

Tested on: S. aureus
Experiment: Growth performance of S. aureus in resin bottle containing imipenem with and without cysteine (BacT/Alert 3D)
Type: cell-based
Details: after 5 days; triplicate resin bottles, 36° C.; 30-300 CFU inoculum

In the case of `C[C@@H](O)[C@H]1C(=O)N2C(C(=O)O)=C(SCCN=CN)C[C@H]12` [Imipenem, imipenem], the “S. aureus growth in bottles” value was “negative”.
